# Experimental data as given in patent US12338279B2, “Selective and potent inhibitory antibodies of myostatin activation” (SCHOLAR ROCK, INC., priority 2022, dated 2025).
# At least one structure is not confirmed: it was looked up by name or label, or the drawing left a doubt.
# System: diet-induced obese mice on liraglutide
# Test: High fat diet (DIO) mice treated with liraglutide and antibody
# Type: in vivo, mouse
structure (smiles),measurement,setting,value
"CCCCCCCCCCCCCCCC(=O)N[C@@H](CCC(=O)NCCCC[C@H](NC(=O)[C@H](C)NC(=O)[C@H](C)NC(=O)[C@H](CCC(N)=O)NC(=O)CNC(=O)[C@H](CCC(=O)O)NC(=O)[C@H](CC(C)C)NC(=O)[C@H](Cc1ccc(O)cc1)NC(=O)[C@H](CO)NC(=O)[C@H](CO)NC(=O)[C@@H](NC(=O)[C@H](CC(=O)O)NC(=O)[C@H](CO)NC(=O)[C@@H](NC(=O)[C@H](Cc1ccccc1)NC(=O)[C@@H](NC(=O)CNC(=O)[C@H](CCC(=O)O)NC(=O)[C@H](C)NC(=O)[C@@H](N)Cc1cnc[nH]1)[C@@H](C)O)[C@@H](C)O)C(C)C)C(=O)N[C@@H](CCC(=O)O)C(=O)N[C@@H](Cc1ccccc1)C(=O)N[C@H](C(=O)N[C@@H](C)C(=O)N[C@@H](Cc1c[nH]c2ccccc12)C(=O)N[C@@H](CC(C)C)C(=O)N[C@H](C(=O)N[C@@H](CCCNC(=N)N)C(=O)NCC(=O)N[C@@H](CCCNC(=N)N)C(=O)NCC(=O)O)C(C)C)[C@@H](C)CC)C(=O)O [liraglutide, reference compound]",lean mass lost,"liraglutide alone, FIG. 11E",4%
same,body weight of mice on high fat diet,"liraglutide daily, antibody weekly for four weeks, FIGS. 11A-D",lowered the increase in body weight
same,fat mass,"with liraglutide, FIG. 11G",initially lost fat mass
